{"source": "paper PMC6023120", "target": "Schistosoma mansoni methyl-CpG-binding domain protein (SmMBD2/3) (Schistosoma mansoni) (UniProt C4Q592)", "assay": "two-hybrid; Matchmaker library screen: SmMBD2/3 Gal4-BD bait (pGBKT7, Y187) against adult S. mansoni cDNA library (pGADT7-Rec, AH109); SD/-Trp/-Leu/-His/-Ade + X-α-gal, X-β-gal filter assay; in-frame hits retested by co-transformation into Y2HGold with Aureobasidin A (60 ng/ml)", "note": "These are yes or no findings as the source states them, for the method shown. Binding calls can cover weak binding; strength is not graded here.", "data": [{"substance": "S. mansoni chromobox protein SmCBX (Δ1–160), C-terminal in-frame truncation of Smp_179650 (from UniProt G4VDS7) (domain or fragment)", "values": [{"measurement": "binding", "result": "binds"}]}]}
